No constants are given. Whether binding was seen depends on the method and setting. In cells and extracts the contact can be indirect. Some entries that bind do so weakly or less than the wild type. Tags and fused reporters may be left off the sequences shown.
Target: hDOT1L-HA (human) (UniProt Q8TEK3)
Assay: co-immunoprecipitation from 293T cells, anti-FLAG IP, anti-HA blot

Chains of the proteins cited; added tags and fusions are not shown. Lines headed by an entry give the natural chain unless they say otherwise; changes in a name come on top.
UniProt Q8TEK3: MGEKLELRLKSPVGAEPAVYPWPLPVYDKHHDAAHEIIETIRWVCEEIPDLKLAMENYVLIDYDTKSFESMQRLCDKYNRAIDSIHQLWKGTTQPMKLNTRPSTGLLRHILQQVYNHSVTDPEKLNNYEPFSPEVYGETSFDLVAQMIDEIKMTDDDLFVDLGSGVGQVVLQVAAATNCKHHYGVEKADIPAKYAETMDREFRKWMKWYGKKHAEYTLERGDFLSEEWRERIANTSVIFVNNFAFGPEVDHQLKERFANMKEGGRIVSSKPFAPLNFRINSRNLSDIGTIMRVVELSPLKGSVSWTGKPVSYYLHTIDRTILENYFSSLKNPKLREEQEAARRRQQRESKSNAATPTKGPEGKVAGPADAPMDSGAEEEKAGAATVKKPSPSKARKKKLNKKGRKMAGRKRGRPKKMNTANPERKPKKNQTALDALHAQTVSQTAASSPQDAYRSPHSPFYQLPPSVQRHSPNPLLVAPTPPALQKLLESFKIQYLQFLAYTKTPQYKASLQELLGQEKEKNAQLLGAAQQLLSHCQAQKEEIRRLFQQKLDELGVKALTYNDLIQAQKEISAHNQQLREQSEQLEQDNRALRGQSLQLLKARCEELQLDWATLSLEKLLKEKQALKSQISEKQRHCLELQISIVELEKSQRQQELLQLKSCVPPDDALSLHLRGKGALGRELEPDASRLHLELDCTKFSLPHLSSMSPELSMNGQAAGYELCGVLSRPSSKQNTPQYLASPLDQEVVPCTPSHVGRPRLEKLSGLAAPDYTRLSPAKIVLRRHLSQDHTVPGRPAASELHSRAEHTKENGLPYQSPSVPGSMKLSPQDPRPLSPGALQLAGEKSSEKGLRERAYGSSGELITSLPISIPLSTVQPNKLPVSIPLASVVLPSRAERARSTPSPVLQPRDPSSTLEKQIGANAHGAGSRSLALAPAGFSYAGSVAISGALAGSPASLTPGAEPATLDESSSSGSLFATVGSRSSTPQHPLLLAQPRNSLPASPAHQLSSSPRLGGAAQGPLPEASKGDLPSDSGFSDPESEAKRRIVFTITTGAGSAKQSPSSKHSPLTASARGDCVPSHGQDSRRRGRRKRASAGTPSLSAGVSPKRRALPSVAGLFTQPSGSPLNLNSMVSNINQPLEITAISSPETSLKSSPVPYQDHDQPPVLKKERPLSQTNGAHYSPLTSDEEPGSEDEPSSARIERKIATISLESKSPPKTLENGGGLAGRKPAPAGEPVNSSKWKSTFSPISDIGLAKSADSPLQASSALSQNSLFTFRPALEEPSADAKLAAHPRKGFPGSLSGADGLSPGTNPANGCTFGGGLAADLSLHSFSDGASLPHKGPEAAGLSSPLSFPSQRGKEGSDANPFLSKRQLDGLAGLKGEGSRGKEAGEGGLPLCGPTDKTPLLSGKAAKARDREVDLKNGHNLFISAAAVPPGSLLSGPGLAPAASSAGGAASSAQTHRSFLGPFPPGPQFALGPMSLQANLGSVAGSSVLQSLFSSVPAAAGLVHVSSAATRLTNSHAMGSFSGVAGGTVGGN

binding: binds
B1: FLAG-tagged AF10 (protein, UniProt P55197 1-1068, looked up, not shown: small tags and cut ends)
chain: MVSSDRPVSLEDEVSHSMKEMIGGCCVCSDERGWAENPLVYCDGHGCSVAVHQACYGIVQVPTGPWFCRKCESQERAARVRCELCPHKDGALKRTDNGGWAHVVCALYIPEVQFANVSTMEPIVLQSVPHDRYNKTCYICDEQGRESKAATGACMTCNKHGCRQAFHVTCAQFAGLLCEEEGNGADNVQYCGYCKYHFSKLKKSKRGSNRSYDQSLSDSSSHSQDKHHEKEKKKYKEKDKHKQKHKKQPEPSPALVPSLTVTTEKTYTSTSNNSISGSLKRLEDTTARFTNANFQEVSAHTSSGKDVSETRGSEGKGKKSSAHSSGQRGRKPGGGRNPGTTVSAASPFPQGSFSGTPGSVKSSSGSSVQSPQDFLSFTDSDLRNDSYSHSQQSSATKDVHKGESGSQEGGVNSFSTLIGLPSTSAVTSQPKSFENSPGDLGNSSLPTAGYKRAQTSGIEEETVKEKKRKGNKQSKHGPGRPKGNKNQENVSHLSVSSASPTSSVASAAGSITSSSLQKSPTLLRNGSLQSLSVGSSPVGSEISMQYRHDGACPTTTFSELLNAIHNGIYNSNDVAVSFPNVVSGSGSSTPVSSSHLPQQSSGHLQQVGALSPSAVSSAAPAVATTQANTLSGSSLSQAPSHMYGNRSNSSMAALIAQSENNQTDQDLGDNSRNLVGRGSSPRGSLSPRSPVSSLQIRYDQPGNSSLENLPPVAASIEQLLERQWSEGQQFLLEQGTPSDILGMLKSLHQLQVENRRLEEQIKNLTAKKERLQLLNAQLSVPFPTITANPSPSHQIHTFSAQTAPTTDSLNSSKSPHIGNSFLPDNSLPVLNQDLTSSGQSTSSSSALSTPPPAGQSPAQQGSGVSGVQQVNGVTVGALASGMQPVTSTIPAVSAVGGIIGALPGNQLAINGIVGALNGVMQTPVTMSQNPTPLTHTTVPPNATHPMPATLTNSASGLGLLSDQQRQILIHQQQFQQLLNSQQLTPEQHQAFLYQLMQHHHQQHHQPELQQLQIPGPTQIPINNLLAGTQAPPLHTATTNPFLTIHGDNASQKVARLSDKTGPVAQEKS

Reference: patent US20050048634A1
